From patent publication US7560559B2, “Polymorphic form of montelukast sodium” (Merck & Co., Inc., priority 2003, dated 2009)

Legend:
[1] = for relative CH3CN pressure of discrete loss (reverse jump) during desorption: decreasing CH3CN vapor pressure in nitrogen; for relative CH3CN pressure of discrete loss (reverse jump) during desorption / relative CH3CN pressure of discrete sorption jump indicating solvate formation: 20 and 40° C.; for relative CH3CN pressure of discrete sorption jump indicating solvate formation: increasing CH3CN vapor pressure in nitrogen; for ratio CH3CN/montelukast sodium by extrapolation of the solvate sorption data segments to 0%: molar ratio, extrapolated to 0% relative pressure

Row | relative CH3CN pressure of discrete loss (reverse jump) during desorption [1] | relative CH3CN pressure of discrete sorption jump indicating solvate formation [1] | ratio CH3CN/montelukast sodium by extrapolation of the solvate sorption data segments to 0% [1] [CH3CN/montelukast sodium] | SMILES | relative thermodynamic stability of the polymorphs from melting traces (dry samples, DSC 5° C./min, melting enthalpy and onset compared) | relative stability of the solvate forms from melting traces (solvates formed in situ with excess acetonitrile in sealed pan, DSC)
1 | approximately 20% | 50-60% |  | CC(C)(O)c1ccccc1CC[C@@H](SCC1(CC(=O)[O-])CC1)c1cccc(/C=C/c2ccc3ccc(Cl)cc3n2)c1.[Na+] [Form A, montelukast sodium] | more thermodynamically stable than Form B | 
2 | below 5% | no discrete jump during sorption |  | CC(C)(O)c1ccccc1CC[C@@H](SCC1(CC(=O)[O-])CC1)c1cccc(/C=C/c2ccc3ccc(Cl)cc3n2)c1.[Na+] [Form B, montelukast sodium] |  | 
3 |  |  | 0.45 | CC(C)(O)c1ccccc1CC[C@@H](SCC1(CC(=O)[O-])CC1)c1cccc(/C=C/c2ccc3ccc(Cl)cc3n2)c1.[Na+] [hemisolvate, montelukast sodium:acetonitrile hemisolvate] |  | more stable than the monosolvate at all meaningful temperatures
4 |  |  | 1.1 | CC(C)(O)c1ccccc1CC[C@@H](SCC1(CC(=O)[O-])CC1)c1cccc(/C=C/c2ccc3ccc(Cl)cc3n2)c1.[Na+] [monosolvate, montelukast sodium:acetonitrile monosolvate] |  | 
